Assay results as given in patent US20220251504A1, “FUNCTIONAL ASTROCYTES DERIVED FROM PLURIPOTENT STEM CELLS AND METHODS OF MAKING AND USING THE SAME” (New York Stem Cell Foundation, Inc., priority 2019, published 2022).
Some entries share one result that the patent states for a list of compounds. At least one structure is not confirmed: it was looked up by name or label, or the drawing left a doubt.

Tested on: OLIG2-GFP knock-in hESC reporter line
Test: OLIG2-GFP expression by flow cytometry during differentiation of hESC reporter line
Assay type: cell-based, human
Settings: SB431542 and LDN193189 combined with RA and SHH signaling
Procedure: RA at a concentration of 100 nM from day 0 results in the highest yield of GFP^+ cells. […] Negative: human embryonic stem cell (hESC) line RUES1. […] Error bars are SEM (N=3). […] Only GFP^+ cells form spheres, providing enrichment to the GFP^+ population.
An OLIG2-GFP knock-in hESC reporter line was used to track OLIG2^+ progenitors by live fluorescent imaging. First, PAX6^+ cells were induced using dual inhibition of SMAD signaling in adherent cultures. Next, to mimic the embryonic spinal cord environment, different concentrations of RA and/or SHH were applied at various times and quantified OLIG2-GFP expression through flow cytometry (FIG. 2A).
At day 12, cells were detached and placed into low-attachment plates to promote their aggregation into spheres. The minimum number of cells required to form a sphere was at least 100 cells, and we noted that the majority of cells in the spheres were GFP^+. […]
Cells were enzymatically harvested by Accutase™ treatment for 25 minutes at 37° C. to obtain a single cell suspension. Cells were then re-suspended in 100 μl of their respective medium containing the appropriate amount of either primary antibody or fluorescence-conjugated antibodies and were incubated on ice for 30 minutes shielded from light. […] Flow cytometry data were analyzed using BD FACSDiva™ software.

| Compound | cells expressing OLIG2 at day 12 |
| --- | --- |
| NC(=O)c1ccc(-c2nc(-c3ccc4c(c3)OCO4)c(-c3ccccn3)[nH]2)cc1 [SB431542] | more than 70% |
| c1ccc2c(-c3cnn4cc(-c5ccc(N6CCNCC6)cc5)cnc34)ccnc2c1 [LDN193189] | more than 70% |
